From article PMC3735939, “The low levels of eicosapentaenoic acid in rat brain phospholipids are maintained via multiple redundant mechanisms” (Journal of Lipid Research, 2013)

Test: Brain total phospholipid and phospholipid class FA concentrations (GC-FID)
Assay type: in vivo, rat
Details: for percent of total EtnGpl FAs: brain EtnGpl; for percent of total PtdSer FAs: brain PtdSer; for percent of total ChoGpl FAs: brain ChoGpl
Text: Total lipids from one brain hemisphere and from plasma were extracted by the method of Folch, Lees, and Sloane Stanley ([39]). Isolation of various neutral lipid and phospholipid classes from the total lipid extract was previously described by Chen, Liu, and Bazinet ([6]).
Brain FA concentrations from total and phospholipid classes were quantified as described by Chen, Liu, and Bazinet ([6]).

Row | Compound | Brain FA concentration in ChoGpl (MEP) | Brain FA concentration in EtnGpl (MEP) | Brain FA concentration in PtdIns (MEP) | Brain FA concentration in PtdSer (MEP) | Brain Total PL FA concentration (MEP 10 mg/kg) | Brain FA concentration in ChoGpl (Vehicle) | Brain FA concentration in EtnGpl (Vehicle) | Brain FA concentration in PtdIns (Vehicle) | Brain FA concentration in PtdSer (Vehicle) | Brain Total PL FA concentration (Vehicle) | percent of total EtnGpl FAs [%] | percent of total PtdSer FAs [%] | percent of total FAs in brain phospholipids [%] | Brain Total PL FA concentration (MEP 10 mg/kg, listed as 20:5n-3) [nmol/g brain] | Brain Total PL FA concentration (Vehicle, listed as 20:5n-3) [nmol/g brain] | percent of total ChoGpl FAs [%] | percent of total PtdIns FAs (brain PtdIns) [%]
1 | CC/C=C\C/C=C\C/C=C\C/C=C\C/C=C\CCCCCC(=O)O [n-3 DPA, n-3 docosapentaenoic acid] | 3.5 ± 0.37 nmol/g brain | 8.7 ± 1 nmol/g brain | 0.69 ± 0.13 nmol/g brain | 5.7 ± 0.5 nmol/g brain | 16 ± 2 nmol/g brain | 3.7 ± 0.65 nmol/g brain | 8.6 ± 0.73 nmol/g brain | 0.81 ± 0.27 nmol/g brain | 5.8 ± 0.84 nmol/g brain | 17 ± 3 nmol/g brain | – | – | – | – | – | – | –
2 | CCCCCC/C=C\CCCCCCCC(=O)O [16:1n-7, palmitoleate] | 145 ± 11 nmol/g brain | 143 ± 45 nmol/g brain | 11 ± 1.3 nmol/g brain | 5.8 ± 1.1 nmol/g brain | 327 ± 48 nmol/g brain | 146 ± 14 nmol/g brain | 148 ± 62 nmol/g brain | 12 ± 3 nmol/g brain | 6.0 ± 1.2 nmol/g brain | 376 ± 65 nmol/g brain | – | – | – | – | – | – | –
3 | CC/C=C\C/C=C\C/C=C\CCCCCCCC(=O)O [18:3n-3, α-linolenate] | 10 ± 0.83 nmol/g brain | 13 ± 1.5 nmol/g brain | 1.2 ± 0.15 nmol/g brain | 2.7 ± 0.46 nmol/g brain | 24 ± 2.7 nmol/g brain | 11 ± 1.3 nmol/g brain | 14 ± 3.1 nmol/g brain | 1.2 ± 0.32 nmol/g brain | 2.9 ± 0.46 nmol/g brain | 27 ± 6.5 nmol/g brain | – | – | – | – | – | – | –
4 | CC/C=C\C/C=C\C/C=C\C/C=C\C/C=C\C/C=C\CCC(=O)O [DHA, docosahexaenoic acid] | 1,387 ± 85 nmol/g brain | 5,448 ± 356 nmol/g brain | 185 ± 40 nmol/g brain | 2,331 ± 105 nmol/g brain | 8,729 ± 380 nmol/g brain | 1,351 ± 100 nmol/g brain | 5,812 ± 485 nmol/g brain | 196 ± 49 nmol/g brain | 2,357 ± 161 nmol/g brain | 8,789 ± 830 nmol/g brain | 17 | 17 | 9 | – | – | – | –
5 | CCCCCCCCCCCCCCCCCC(=O)O [18:0, stearate] | 6,403 ± 150 nmol/g brain | 6,492 ± 213 nmol/g brain | 1,811 ± 138 nmol/g brain | 6,104 ± 414 nmol/g brain | 21,349 ± 561 nmol/g brain | – | 6,590 ± 257 nmol/g brain | 1,933 ± 355 nmol/g brain | 6,441 ± 704 nmol/g brain | 22,241 ± 2,610 nmol/g brain | – | – | 22 | – | – | – | –
6 | CCCCCCCC/C=C\CCCCCCCC(=O)O [18:1n-9, oleate] | 10,705 ± 373 nmol/g brain | 8,235 ± 507 nmol/g brain | 813 ± 72 nmol/g brain | 2,899 ± 278 nmol/g brain | 20,370 ± 960 nmol/g brain | 10,893 ± 1,098 nmol/g brain | 8,833 ± 973 nmol/g brain | 864 ± 199 nmol/g brain | 3,165 ± 528 nmol/g brain | 21,384 ± 3,400 nmol/g brain | – | – | 21 | – | – | – | –
7 | CCCCC/C=C\C/C=C\CCCCCCCC(=O)O [18:2n-6, linoleate] | 452 ± 36 nmol/g brain | 166 ± 11 nmol/g brain | 41 ± 5.2 nmol/g brain | 24 ± 5.4 nmol/g brain | 743 ± 52 nmol/g brain | 464 ± 32 nmol/g brain | 182 ± 10 nmol/g brain | 44 ± 10 nmol/g brain | 26 ± 6 nmol/g brain | 770 ± 49 nmol/g brain | – | – | – | – | – | – | –
8 | CCCCC/C=C\C/C=C\C/C=C\C/C=C\CCCC(=O)O [ARA, arachidonic acid] | 2,255 ± 70 nmol/g brain | 4,089 ± 154 nmol/g brain | 1,279 ± 126 nmol/g brain | 411 ± 32 nmol/g brain | 7,797 ± 318 nmol/g brain | 2,242 ± 169 nmol/g brain | 4,302 ± 322 nmol/g brain | 1,330 ± 226 nmol/g brain | 449 ± 46 nmol/g brain | 7,921 ± 791 nmol/g brain | – | – | 8 | – | – | – | –
9 | CC/C=C\C/C=C\C/C=C\C/C=C\C/C=C\CCCC(=O)O [EPA, eicosapentaenoic acid] | 60 ± 8.7 nmol/g brain | 65 ± 11 nmol/g brain | 24 ± 6.2 nmol/g brain | 50 ± 9.4 nmol/g brain | 202 ± 8.6 nmol/g brain | 61 ± 9 nmol/g brain | 74 ± 16 nmol/g brain | 26 ± 12 nmol/g brain | 57 ± 17 nmol/g brain | 225 ± 12 nmol/g brain | 0.2 | 0.4 | 0.2 | 202 ± 29 | 225 ± 37 | 0.1 | 0.5
10 | CCCCCCCCCCCCCCCC(=O)O [Palmitate, [1-14C]palmitate] | 23,762 ± 492 nmol/g brain | 2,786 ± 107 nmol/g brain | 746 ± 67 nmol/g brain | 333 ± 23 nmol/g brain | 23,932 ± 725 nmol/g brain | 23,818 ± 1,531 nmol/g brain | 2,903 ± 242 nmol/g brain | 807 ± 199 nmol/g brain | 367 ± 89 nmol/g brain | 24,559 ± 2030 nmol/g brain | – | – | 25 | – | – | 48 | –
